{
  "source": "paper PMC8114533",
  "target": "T1, Flag-tagged MYLK4 (myosin light chain kinase family member 4) in 143B cells (human) (UniProt Q86YV6)",
  "T1 sequence": "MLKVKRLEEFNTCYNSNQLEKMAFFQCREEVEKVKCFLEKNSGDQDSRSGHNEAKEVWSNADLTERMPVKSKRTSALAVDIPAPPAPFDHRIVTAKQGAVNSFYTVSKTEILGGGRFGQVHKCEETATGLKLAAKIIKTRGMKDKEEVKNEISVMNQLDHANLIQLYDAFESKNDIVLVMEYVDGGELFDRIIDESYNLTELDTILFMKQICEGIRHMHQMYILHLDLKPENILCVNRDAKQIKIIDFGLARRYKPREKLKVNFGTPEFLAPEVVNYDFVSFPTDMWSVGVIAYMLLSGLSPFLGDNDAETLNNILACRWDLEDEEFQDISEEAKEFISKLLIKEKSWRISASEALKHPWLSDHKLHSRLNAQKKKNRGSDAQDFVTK",
  "assay": "affinity purification with mass spectrometry; IP beads from a 10 cm dish of Flag-MYLK4 overexpression 143B cells; silver staining, indicated bands sequenced by MS (Orbitrap Elite)",
  "note": "Results are given in words; binding and its absence hold for the method and conditions named. Binding seen in cells or lysates may run through a third protein. Here binding means that the protein was enriched with, or labelled near, the bait; the list need not be complete. Where a sequence is shown, tags or fusion partners need not be part of it.",
  "data": [
    {"substance": "Epidermal growth factor receptor (EGFR), endogenous in 143B cells (from UniProt P00533 25-1210)", "values": [
      {"measurement": "binding", "value": "binds"}
    ]}
  ]
}
